Measured values reported in publication doi:10.1101/362921.
No constants are given. Whether binding was seen depends on the method and setting. For some assays here: In cells and extracts the contact can be indirect. Some entries that bind do so weakly or less than the wild type. Tags and fused reporters may be left off the sequences shown. Values belong to the binder of their own block, whether it stands above or below them.

Key:
[1] = target: T1, PAD4 (phytoalexin deficient4), binding domain (BD) fusion (Arabidopsis) (UniProt Q9S745); experiment: two-hybrid
T1 sequence: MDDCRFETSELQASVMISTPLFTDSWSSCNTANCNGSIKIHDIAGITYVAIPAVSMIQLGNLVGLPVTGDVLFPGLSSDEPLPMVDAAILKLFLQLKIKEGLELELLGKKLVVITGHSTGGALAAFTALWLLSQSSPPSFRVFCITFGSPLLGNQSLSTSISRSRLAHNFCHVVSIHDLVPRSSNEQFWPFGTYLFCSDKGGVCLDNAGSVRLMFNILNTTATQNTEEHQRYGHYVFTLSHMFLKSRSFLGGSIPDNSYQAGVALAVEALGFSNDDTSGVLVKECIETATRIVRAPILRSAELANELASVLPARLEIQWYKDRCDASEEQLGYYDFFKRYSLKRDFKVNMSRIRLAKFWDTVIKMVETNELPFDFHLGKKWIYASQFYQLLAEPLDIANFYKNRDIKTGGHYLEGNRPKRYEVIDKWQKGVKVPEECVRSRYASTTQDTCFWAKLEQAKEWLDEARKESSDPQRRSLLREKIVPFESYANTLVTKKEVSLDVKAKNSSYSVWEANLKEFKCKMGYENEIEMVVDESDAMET

PAD4-YFP (Arabidopsis) = target: T2, PAD4-YFP (Arabidopsis) (UniProt Q9S745); experiment: co-IP
T2 sequence: T1 sequence

binding [1]: binds
B1: EDS1 (Enhanced disease susceptibility 1), wild type, activation domain (AD) fusion (protein, UniProt Q9XF23 1-623)
chain: MAFEALTGINGDLITRSWSASKQAYLTERYHKEEAGAVVIFAFQPSFSEKDFFDPDNKSSFGEIKLNRVQFPCMRKIGKGDVATVNEAFLKNLEAVIDPRTSFQASVEMAVRSRKQIVFTGHSSGGATAILATVWYLEKYFIRNPNVYLEPRCVTFGAPLVGDSIFSHALGREKWSRFFVNFVTRFDIVPRITLARKASVEETLPHVLAQLDPRNSSVQESEQRITEFYTSVMRDTSTVANQAVCELTGSAEAILETLSSFLELSPYRPAGTFVFSTEKRLVAVNNSDAILQMLFYTCQASDEQEWSLIPFRSIRDHHSYEELVQSMGMKLFNHLDGENSIESSLNDLGVSTRGRQYVQAALEEEKKRVENQKKIIQVIQQERFLKKLAWIEDEYKPKCQAHKNGYYDSFKVSNEENDFKANVKRAELAGVFDEVLGLLKKCQLPDEFEGDIDWIKLATRYRRLVEPLDIANYHRHLKNEDTGPYMKRGRPTRYIYAQRGYEHHILKPNGMIAEDVFWNKVNGLNLGLQLEEIQETLKNSGSECGSCFWAEVEELKGKPYEEVEVRVKTLEGMLREWITAGEVDEKEIFLEGSTFRKWWITLPKNHKSHSPLRDYMMDEITDT

binding (PAD4-YFP (Arabidopsis)): binds
B2: wild-type EDS1-FLAG (protein, UniProt Q9XF23 1-623)
chain: B1 chain
